Laboratory results as given in patent US20230078601A1 (CLEVELAND CLINIC FOUNDATION, published 2023).
No constants are given. Whether binding was seen depends on the method and setting. Some results given as binding are weak or reduced against the parent protein; the word gives no strength. Sequences can lack the tags named with a protein.

Target: 4D12G1 mAb
Test: competitive ELISA: 4D12G1 pre-incubated with rising soluble rhAMHR2-ED, then added to plates coated with rhAMHR2-ED; soluble rhAMHR2-ED is the varied competing protein

binding: binds
B1: recombinant extracellular domain of human AMHR2 (rhAMHR2-ED), C-terminal hexahistidine-tagged fusion protein (receptor)
chain: PPNRRTCVFFEAPGVRGSTKTLGELLDTGTELPRAIRCLYSRCCFGIWNLTQDRAQVEMQGCRDSDEPGCESLHCDPSPRAHPSPGSTLFTCSCGTDFCNANYSHLPPPGSPGTPGSQGPQAAPGESIWMALHHHHHH
